Record: PubChem BioAssay AID504808 (Drosophila RNAi Screening Center, 2011)

Screen: 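Fly genes required to hold E2F transcription in check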 (primary screen)
Cells: Drosophila S2 cells
Reagent: long dsRNA against Drosophila genes
Read-out: 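Dual luciferase plate measurements; E2F-specific signal taken as firefly over Renilla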
Reading the numbers: E2F firefly: higher = more E2F reporter activity; Renilla normaliser: higher = more normaliser reporter signal
Rule for the call: 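Called active if the normalised E2F reporter went up by over 50%; the cutoff is arbitrary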
The deposit covers about 21,000 reagents; shown is a random part of those with a known target gene and a result. Over the whole deposit, 18 (0.084%) got an active call. 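Raw counts without plate normalisation, one of two replicates; the ratio scores behind the calls were not deposited.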 A plus sign joins genes that one reagent is predicted to hit. The record does not give: the amount of reagent, the time to read-out.

| Gene | DRSC id | E2F firefly, rep 1 | Renilla normaliser, rep 1 | call |
| --- | --- | --- | --- | --- |
| Dic3 | DRSC06058 | 1.35e5 | 4456 | inactive |
| Act5C | DRSC17723 | 1.08e5 | 5538 | inactive |
| CG8500 | DRSC16434 | 1.09e5 | 7346 | inactive |
| Ctu1 | DRSC07069 | 1.44e5 | 4733 | inactive |
| CG14684 | DRSC14907 | 1.47e5 | 6119 | inactive |
| CG14770 | DRSC17947 | 1.24e5 | 5313 | inactive |
| CG14565 | DRSC11726 | 1.29e5 | 6942 | inactive |
| Cul3 | DRSC03537 | 73222 | 3768 | inactive |
| CG6695 | DRSC16098 | 79020 | 3961 | inactive |
| Hil | DRSC05989 | 67066 | 3498 | inactive |
| Hil | DRSC06395 | 84455 | 3857 | inactive |
| Gr58c | DRSC04136 | 1.04e5 | 3907 | inactive |
| Rchy1 | DRSC02542 | 1.45e5 | 4692 | inactive |
| chic | DRSC03507 | 1.48e5 | 5487 | inactive |
| CG8665 | DRSC03098 | 93226 | 3686 | inactive |
| Prx3 | DRSC15883 | 64863 | 3214 | inactive |
| CG17169 | DRSC20905 | 1.41e5 | 7323 | inactive |
| Nipped-A | DRSC04882 | 98726 | 3946 | inactive |
| Nipped-A | DRSC04883 | 1.01e5 | 4717 | inactive |
| Nipped-A | DRSC04884 | 1.07e5 | 4238 | inactive |
| Nipped-A | DRSC07738 | 90533 | 4546 | inactive |
| CG11619 | DRSC09849 | 1.34e5 | 6377 | inactive |
| CG13216 | DRSC06338 | 96275 | 4472 | inactive |
| r + CG13012 | DRSC19531 | 1.58e5 | 7255 | inactive |
| CG8507 | DRSC16435 | 1.30e5 | 6392 | inactive |
| CG4730 | DRSC15633 | 1.05e5 | 5666 | inactive |
| CG1648 | DRSC06610 | 73184 | 3961 | inactive |
| wts | DRSC17096 | 69162 | 5050 | inactive |
| Nurf-38 | DRSC04629 | 1.07e5 | 3920 | inactive |
| CG1943 | DRSC12576 | 1.44e5 | 6937 | inactive |
| CG4596 | DRSC15608 | 1.38e5 | 6077 | inactive |
| Gclm | DRSC15677 | 66242 | 4257 | inactive |
| Mpp6 | DRSC03169 | 1.07e5 | 4914 | inactive |
| CG32206 | DRSC09602 | 79088 | 3690 | inactive |
| CG32206 | DRSC10094 | 1.45e5 | 6965 | inactive |
| CG32206 | DRSC10095 | 1.48e5 | 7278 | inactive |
| CG32206 | DRSC10096 | 1.44e5 | 7950 | inactive |
| CG32206 | DRSC11080 | 1.41e5 | 7518 | inactive |
| Pfas | DRSC03480 | 87064 | 3874 | inactive |
| Ir60a | DRSC04212 | 1.18e5 | 4561 | inactive |
| CG5348 | DRSC06933 | 1.62e5 | 5694 | inactive |
| ETH | DRSC04612 | 1.07e5 | 4404 | inactive |
| alphaSnap | DRSC11285 | 63666 | 3864 | inactive |
| Hs6st | DRSC14348 | 1.34e5 | 7400 | inactive |
| Hs6st | DRSC15182 | 1.41e5 | 7410 | inactive |
| Hs6st | DRSC15581 | 1.34e5 | 6547 | inactive |
| CG42568 + DnaJ-60 | DRSC04207 | 1.11e5 | 4750 | inactive |
| CG42568 + DnaJ-60 | DRSC04611 | 76783 | 3474 | inactive |
| LTV1 | DRSC05951 | 2415 | 216 | inactive |

The list goes on (4 carried over from the part before).
| Gene | DRSC id | E2F firefly, rep 1 | Renilla normaliser, rep 1 | call |
| --- | --- | --- | --- | --- |
| Hs6st | DRSC15581 | 1.34e5 | 6547 | inactive |
| CG42568 + DnaJ-60 | DRSC04207 | 1.11e5 | 4750 | inactive |
| CG42568 + DnaJ-60 | DRSC04611 | 76783 | 3474 | inactive |
| LTV1 | DRSC05951 | 2415 | 216 | inactive |
| CG5062 | DRSC18385 | 87766 | 5031 | inactive |
| CG13084 | DRSC02188 | 1.07e5 | 4123 | inactive |
| gny | DRSC02810 | 81015 | 3784 | inactive |
| CG12268 | DRSC14491 | 1.13e5 | 6292 | inactive |
| Ir7c | DRSC18007 | 65782 | 4469 | inactive |
| clu | DRSC07181 | 61371 | 3272 | inactive |
| CG4658 | DRSC02768 | 1.46e5 | 5132 | inactive |
| CG42588 | DRSC09820 | 1.42e5 | 7637 | inactive |
| Ttc19 | DRSC02474 | 1.06e5 | 4453 | inactive |
| Naa35 | DRSC04447 | 76212 | 3698 | inactive |
| CG5071 | DRSC15710 | 1.03e5 | 6177 | inactive |
| moon | DRSC19497 | 1.41e5 | 6751 | inactive |
| corolla | DRSC20102 | 1.55e5 | 5408 | inactive |
| dpr16 | DRSC12217 | 1.14e5 | 5710 | inactive |
| dpr16 | DRSC12249 | 46539 | 3448 | inactive |
| Tcs5 | DRSC09774 | 92292 | 4013 | inactive |
| bcn92 | DRSC18741 | 77615 | 4813 | inactive |
| RpL13A | DRSC12265 | 44505 | 3210 | inactive |
| CG31097 | DRSC14666 | 1.14e5 | 6249 | inactive |
| CG13558 | DRSC04196 | 97696 | 4497 | inactive |
| CG42662 + CG30080 | DRSC05571 | 1.36e5 | 4800 | inactive |
| Lac | DRSC07452 | 3282 | 200 | inactive |
| Dhdds | DRSC17756 | 48526 | 3309 | inactive |
| CG16787 | DRSC04282 | 1.02e5 | 4237 | inactive |
| CG7156 | DRSC16207 | 71915 | 4530 | inactive |
| CR42532 | DRSC06713 | 92363 | 4452 | inactive |
| e(y)3 | DRSC19450 | 1.55e5 | 7237 | inactive |
| CG14180 (retired record) | DRSC10179 | 70152 | 6053 | inactive |
| Boh2 | DRSC02777 | 1.52e5 | 5046 | inactive |
| Aduk | DRSC16451 | 1.19e5 | 5570 | inactive |
| Snp | DRSC04524 | 1.02e5 | 4475 | inactive |
| Srlp | DRSC15890 | 98621 | 5589 | inactive |
| etaTry | DRSC07613 | 1.00e5 | 4399 | inactive |
| Pex2 | DRSC10770 | 77690 | 3761 | inactive |
| ACC | DRSC06059 | 94862 | 4886 | inactive |
| ACC | DRSC07249 | 2458 | 258 | inactive |
